# Measurements published in the supplement of paper PMC8728848.
# This is one part of the list.
# Columns and labels:
# Assay in all cases: glycan array binding signal (z-score within array); higher = stronger binding
# Settings in all cases: glycan notation: IUPAC condensed, linker removed
# [1] = molecular target: Fuc(a1-2)Gal(b1-4)GlcNAc(b1-3)Gal(b1-4)GlcNAc(b1-3)Gal(b1-4)GlcNAc
# Summary of the method: (§1)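 Columns mapping to the same glycan were averaged after glycan names were converted to IUPAC-condensed notation. The data come from 3228 arrays in the Consortium for Functional Glycomics database, limited to those with an available protein sequence. Binding is reported as a within-array Z-score averaged across arrays of one protein sequence and across linkers.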
# [2] = molecular target: Fuc(a1-2)Gal(b1-4)GlcNAc(b1-3)GalNAc
# Summary of the method: as §1
# [3] = molecular target: Fuc(a1-2)Gal(b1-4)GlcNAc(b1-3)[Fuc(a1-2)Gal(b1-4)GlcNAc(b1-6)]GalNAc
# Summary of the method: as §1
# [4] = molecular target: Fuc(a1-2)Gal(b1-4)GlcNAc(b1-3)[Fuc(a1-3)[Gal(b1-4)]GlcNAc(b1-6)]Gal(b1-4)Glc
# Summary of the method: as §1
# [5] = molecular target: Fuc(a1-2)Gal(b1-4)GlcNAc(b1-6)GalNAc
# Summary of the method: as §1
# [6] = molecular target: Fuc(a1-2)Gal(b1-4)GlcNAc6S
# Summary of the method: as §1
# [7] = molecular target: Fuc(a1-2)Gal(b1-4)[Fuc(a1-3)]GlcNAc
# Summary of the method: as §1
# [8] = molecular target: Fuc(a1-2)Gal(b1-4)[Fuc(a1-3)]GlcNAc(b1-2)Man(a1-3)[Fuc(a1-2)Gal(b1-4)[Fuc(a1-3)]GlcNAc(b1-2)Man(a1-6)]Man(b1-4)GlcNAc(b1-4)[Fuc(a1-6)]GlcNAc
# Summary of the method: as §1
# [9] = molecular target: Fuc(a1-2)Gal(b1-4)[Fuc(a1-3)]GlcNAc(b1-2)[Fuc(a1-2)Gal(b1-4)[Fuc(a1-3)]GlcNAc(b1-4)]Man(a1-3)[Fuc(a1-2)Gal(b1-4)[Fuc(a1-3)]GlcNAc(b1-2)Man(a1-6)]Man(b1-4)GlcNAc(b1-4)GlcNAc
# Summary of the method: as §1
# [10] = molecular target: Fuc(a1-2)Gal(b1-4)[Fuc(a1-3)]GlcNAc(b1-3)Gal(b1-4)[Fuc(a1-3)]GlcNAc
# Summary of the method: as §1
# [11] = molecular target: Fuc(a1-2)Gal(b1-4)[Fuc(a1-3)]GlcNAc(b1-3)Gal(b1-4)[Fuc(a1-3)]GlcNAc(b1-3)Gal(b1-4)[Fuc(a1-3)]GlcNAc
# Summary of the method: as §1
# [12] = molecular target: Fuc(a1-2)Gal(b1-4)[Fuc(a1-3)]GlcNAc(b1-3)GalNAc
# Summary of the method: as §1
# [13] = molecular target: Fuc(a1-2)Gal(b1-4)[Fuc(a1-3)]GlcNAc(b1-3)[Neu5Ac(a2-6)Gal(b1-4)GlcNAc(b1-6)]Gal(b1-4)Glc
# Summary of the method: as §1
# [14] = molecular target: Fuc(a1-2)Gal3S(b1-4)GlcNAc
# Summary of the method: as §1
# [15] = molecular target: Fuc(a1-2)Gal6S(b1-3)GlcNAc
# Summary of the method: as §1
# [16] = molecular target: Fuc(a1-2)Gal6S(b1-3)GlcNAc6S
# Summary of the method: as §1
# Fuc(a1-2)Gal6S(b1-4)Glc = molecular target: Fuc(a1-2)Gal6S(b1-4)Glc
# Summary of the method: as §1
# [17] = molecular target: Fuc(a1-2)Gal6S(b1-4)Glc6S
# Summary of the method: as §1
# Fuc(a1-2)[Gal(a1-3)]Gal = molecular target: Fuc(a1-2)[Gal(a1-3)]Gal
# Summary of the method: as §1
# [18] = molecular target: Fuc(a1-2)[Gal(a1-3)]Gal(b1-3)GalNAc
# Summary of the method: as §1
# [19] = molecular target: Fuc(a1-2)[Gal(a1-3)]Gal(b1-3)GalNAc(b1-3)Gal(a1-4)Gal(b1-4)Glc
# Summary of the method: as §1
# [20] = molecular target: Fuc(a1-2)[Gal(a1-3)]Gal(b1-3)GlcNAc
# Summary of the method: as §1
# [21] = molecular target: Fuc(a1-2)[Gal(a1-3)]Gal(b1-3)GlcNAc(b1-2)Man(a1-3)[Fuc(a1-2)[Gal(a1-3)]Gal(b1-3)GlcNAc(b1-2)Man(a1-6)]Man(b1-4)GlcNAc(b1-4)GlcNAc
# Summary of the method: as §1
# [22] = molecular target: Fuc(a1-2)[Gal(a1-3)]Gal(b1-3)GlcNAc(b1-2)Man(a1-3)[Fuc(a1-2)[Gal(a1-3)]Gal(b1-3)GlcNAc(b1-2)Man(a1-6)]Man(b1-4)GlcNAc(b1-4)[Fuc(a1-6)]GlcNAc
# Summary of the method: as §1
# [23] = molecular target: Fuc(a1-2)[Gal(a1-3)]Gal(b1-3)GlcNAc(b1-3)GalNAc
# Summary of the method: as §1
# [24] = molecular target: Fuc(a1-2)[Gal(a1-3)]Gal(b1-3)GlcNAc(b1-6)GalNAc
# Summary of the method: as §1
# [25] = molecular target: Fuc(a1-2)[Gal(a1-3)]Gal(b1-4)Glc
# Summary of the method: as §1
# [26] = molecular target: Fuc(a1-2)[Gal(a1-3)]Gal(b1-4)GlcNAc
# Summary of the method: as §1
# [27] = molecular target: Fuc(a1-2)[Gal(a1-3)]Gal(b1-4)GlcNAc(b1-2)Man
# Summary of the method: as §1
# [28] = molecular target: Fuc(a1-2)[Gal(a1-3)]Gal(b1-4)GlcNAc(b1-2)Man(a1-3)[Fuc(a1-2)[Gal(a1-3)]Gal(b1-4)GlcNAc(b1-2)Man(a1-6)]Man(b1-4)GlcNAc(b1-4)GlcNAc
# Summary of the method: as §1
binder,measurement,setting,value
Pwp1 (Candida glabrata) (protein) MGSSHHHHHHSSGLVPRGSHMASANPISITNVCQFPDNWARTAGFQATTVRLGLTIASNTYKELLNYPGLFNFATQKATVTQPNFSISGFPFFTGLYGLTVWPINLLVELQGYFVPPESGNYTFTLQGSDDAAILFFANPSTFACGSQNDWPQPREADITVTDTLVPSRTLYLVKGVAYPIRIAYYNGSGDGKLNVSFKDPSGTTHTDWKGYVWQYSNTCSTCTYT,glycan array binding signal (z-score),[1],0.308
same,glycan array binding signal (z-score),[2],-0.125
same,glycan array binding signal (z-score),[3],0.026
same,glycan array binding signal (z-score),[4],-0.159
same,glycan array binding signal (z-score),[5],-1.29
same,glycan array binding signal (z-score),[6],0.741
same,glycan array binding signal (z-score),[7],0.777
same,glycan array binding signal (z-score),[8],0.92
same,glycan array binding signal (z-score),[9],0.256
same,glycan array binding signal (z-score),[10],-0.684
same,glycan array binding signal (z-score),[11],-1.96
same,glycan array binding signal (z-score),[12],0.873
same,glycan array binding signal (z-score),[13],0.323
same,glycan array binding signal (z-score),[14],0.714
same,glycan array binding signal (z-score),[15],0.863
same,glycan array binding signal (z-score),[16],0.114
same,glycan array binding signal (z-score),Fuc(a1-2)Gal6S(b1-4)Glc,-0.845
same,glycan array binding signal (z-score),[17],0.762
same,glycan array binding signal (z-score),Fuc(a1-2)[Gal(a1-3)]Gal,-0.123
same,glycan array binding signal (z-score),[18],1.05
same,glycan array binding signal (z-score),[19],-0.81
same,glycan array binding signal (z-score),[20],1.08
same,glycan array binding signal (z-score),[21],-0.014
same,glycan array binding signal (z-score),[22],0.125
same,glycan array binding signal (z-score),[23],0.778
same,glycan array binding signal (z-score),[24],0.51
same,glycan array binding signal (z-score),[25],-0.087
same,glycan array binding signal (z-score),[26],0.138
same,glycan array binding signal (z-score),[27],0.504
same,glycan array binding signal (z-score),[28],-1.83

# In another format: results already given
binder | measurement | setting | value
Pwp1 (Candida glabrata) (protein) MGSSHHHHHHSSGLVPRGSHMASANPISITNVCQFPDNWARTAGFQATTVRLGLTIASNTYKELLNYPGLFNFATQKATVTQPNFSISGFPFFTGLYGLTVWPINLLVELQGYFVPPESGNYTFTLQGSDDAAILFFANPSTFACGSQNDWPQPREADITVTDTLVPSRTLYLVKGVAYPIRIAYYNGSGDGKLNVSFKDPSGTTHTDWKGYVWQYSNTCSTCTYT | glycan array binding signal (z-score) | [7] | 0.777
same | glycan array binding signal (z-score) | [8] | 0.92
